The source of these data is US20210310004.

Construct, isoform or probe ends are uncertain for at least one entry.

The target of this series is GST-p53 (Homo sapiens) (UniProt P04637). Kind of series: binding assay. As to conditions: N = 5-ethynyl-dU clicked (CuAAC) with benzyl-azide [26,28,35,56,57]; fluorescent Western-blot binding; stronger than starting library; TBST-MC (1 mM Mg, 1 mM Ca), dextran sulphate, click competitor, RT; purified recombinant protein; label: IRD800CW 5' (forward primer with C18 spacer); single-stranded DNA; letters built from the parent sequence and the stated change.

Take “AGCCACGGAAGAACCAGAAACAAGATATACACGATGGGGGCACACCAAAGCACCGTTCGAAAGCAGAAGCGACAGCAACA [SEQ ID NO: 1 monoclone, benzyl-functionalized]”: the binding result is reported as “binds”.
